# PubChem BioAssay AID540303 (National Center for Advancing Translational Sciences (NCATS), 2011)
# Hit rate of the full screen: of about 330,000 compounds, about 1,000 (0.3%) were called active. The shares of active, inactive and inconclusive entries below differ from those in the screen. Calls follow the shape of the dose curve; as a rule, active = well fitted inhibition curve with a large enough effect; inconclusive = small, poorly fitted or top-dose-only effect; inactive = no such curve, though single readings can be large or run the other way; tested in mouse RAW 264.7 cells. Where the call is inconclusive, the potency comes from a doubtful curve fit.
# Experiment: qHTS for Inhibitors of Cell Surface uPA Generation; also: nearly all actives have a fitted effect of over 55% in size
# Details: cell surface uPA generation assay; series mostly up to 38.3 µM; activity change, negative = inhibition: at the top concentration
# Procedure, shortened: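 Intracellular ATP by ATPlite luminescence serves as read-out: inhibited cell-surface uPA generation prevents LF translocation, preserving ATP. Murine RAW 264.7 macrophages were treated 24 h at 37 C with five-fold serial dilutions, up to 38.3 uM final.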
# % is scaled to controls: 0 for no effect and ±100 for the full control effect; potency is read from the fitted curve at half-maximal effect.
Structure (SMILES),"activity change, negative = inhibition",Potency
COC(=O)c1cc(S(=O)(=O)NCCCc2ccco2)c[nH]1,inactive: 0.0338%,–
O=C(Nc1ccc(F)cc1)c1oc2ccccc2c1NC(=O)C1CCCC1,inactive: 0.85%,–
COc1cccc(CC(=O)NC2CCCN(Cc3ccc(Cl)cc3)C2)c1 (centres undefined),inactive: -2.22%,–
O=C1N/C(=C/c2ccc(N3CCOCC3)o2)C(=O)N1c1cccc(Cl)c1,–,active: 3.98 µM
COc1ccc(/C=C/C(=O)N(C)CC(=O)Nc2cccc(F)c2)cc1S(=O)(=O)N1CCCCC1,–,"inconclusive: 7.94 µM [inhibitor, single point]"
O=C(NCc1ccc2c(c1)OCO2)c1nc(S(=O)(=O)Cc2ccccc2)ncc1Cl,inactive: -3.84%,–
O=C(Nc1cnn(Cc2ccc(F)cc2)c1)c1noc2c1CCCC2,–,"inconclusive: 5.62 µM [inhibitor, partial curve, poor fit]"
O=C(Nc1ccn(Cc2ccccc2)n1)c1ccc2c(c1)OCO2,–,"inconclusive: 0.891 µM [inhibitor, full curve, poor fit]"
NC(=O)c1c(NC(=O)c2ccc([N+](=O)[O-])o2)sc2c1CCCC2,inactive: 10.2%,–
CC1CCN(CCCNC(=O)c2cc3c(s2)-c2ccccc2OC3)CC1,inactive: 2.33%,–
CC(C)Oc1cccc(C(=O)C2CCCN(Cc3cccn3-c3cccnc3)C2)c1 (centres undefined),–,"inconclusive: 11.2 µM [inhibitor, partial curve, poor fit]"
C[C@@H](CSc1ccc(Br)cc1)CN1CC[C@H](NC(=O)OCc2ccccc2)CCC1=O,–,"inconclusive: 22.4 µM [inhibitor, single point]"
CN1CCCN=C1/C=C/c1cccs1,–,"inconclusive: 3.16 µM [inhibitor, single point]"
COc1cc(OC)cc(C(=O)Nc2ccccc2C(=O)NC2CC2)c1,inactive: -7.58%,–
Cc1ccc(C)c(N2CCN(C(=O)CCCCCn3c(=S)[nH]c4ccc(N5CCOCC5)cc4c3=O)CC2)c1,–,"inconclusive: 14.1 µM [inhibitor, single point]"
Cc1ccc2c(c1)sc(=NC(=O)c1cccs1)n2C,–,"inconclusive: 0.251 µM [inhibitor, full curve, poor fit]"
CC(C)(C)c1nc(NC(=O)Nc2ccccc2)sc1Br,–,"inconclusive: 12.6 µM [inhibitor, partial curve, poor fit]"
O=C(NCCCN1CCOCC1)c1ccc2c(=O)n(Cc3ccc(Cl)cc3)c(=S)[nH]c2c1,–,"inconclusive: 2 µM [inhibitor, full curve, poor fit]"
CCN(CC)S(=O)(=O)c1ccc(C(=O)/C=C/c2ccc(-c3ccc([N+](=O)[O-])cc3)o2)cc1,inactive: 11%,–
CC1CCN(c2ncnc3c2cnn3-c2ccccc2)CC1,–,"inconclusive: 11.2 µM [inhibitor, single point]"
O=C1CCN(CCc2ccccc2)CCN1[C@H](CSc1ccccc1)Cc1ccccc1,–,"inconclusive: 8.91 µM [inhibitor, single point]"
COC(=O)c1cccc2c1-c1ccccc1/C2=N\NC(N)=O,inactive: -4.43%,–
O=S(=O)(c1ccc2[nH]c3c(c2c1)CCCC3)N1CCCCC1,–,"inconclusive: 12.6 µM [inhibitor, single point]"

# An excerpt from above in order of count of non-hydrogen atoms, falling.
Structure (SMILES),"activity change, negative = inhibition",Potency
O=C(NCCCN1CCOCC1)c1ccc2c(=O)n(Cc3ccc(Cl)cc3)c(=S)[nH]c2c1,–,"inconclusive: 2 µM [inhibitor, full curve, poor fit]"
CC(C)Oc1cccc(C(=O)C2CCCN(Cc3cccn3-c3cccnc3)C2)c1 (centres undefined),–,"inconclusive: 11.2 µM [inhibitor, partial curve, poor fit]"
COC(=O)c1cccc2c1-c1ccccc1/C2=N\NC(N)=O,inactive: -4.43%,–
COC(=O)c1cc(S(=O)(=O)NCCCc2ccco2)c[nH]1,inactive: 0.0338%,–

# Continuation.

Structure (SMILES),"activity change, negative = inhibition",Potency
CC(=O)Nc1ccc(NC(=O)COc2ccc(-c3ccc(C#N)cc3)cc2)cc1,inactive: -0.219%,–
Nc1nc(-c2ccc(-n3nncc3-c3ccco3)cc2)cs1,inactive: 4.54%,–
COc1ccc(C2/C=C\CN(C(=O)C3CCCC3)[C@H](Cc3ccccc3)C(=O)N2Cc2ccc(F)cc2)cc1 (some centres undefined),–,"inconclusive: 12.6 µM [inhibitor, single point]"
CCCCCCCCOC(=O)c1c(CSC(=N)N)n(C)c2cc(Br)c(OC(C)=O)cc12,–,"inconclusive: 12.6 µM [inhibitor, single point]"
COc1ccccc1N(CC(=O)NCCSCc1ccccc1)S(C)(=O)=O,–,"inconclusive: 28.2 µM [inhibitor, single point]"
CC(C)=CCCC1(C)C=Cc2c(ccc3c2[nH]c2cc(O)c(C)cc23)O1 (centres undefined),–,"inconclusive: 14.1 µM [inhibitor, single point]"
CCOc1cc(C2C3=C(CC(C)(C)CC3=O)N(CCOC)C3=C2C(=O)CC(C)(C)C3)ccc1OC,–,"inconclusive: 14.1 µM [inhibitor, partial curve, poor fit]"
O=C(NCCCN1CCOCC1)c1cc(-c2ccc(F)cc2)nc2ccccc12,–,"inconclusive: 1.12 µM [inhibitor, partial curve, poor fit]"
Cc1cc2oc(=O)c(CC(=O)NCCCO)c(C)c2c2occ(C(C)(C)C)c12,–,"inconclusive: 11.2 µM [inhibitor, single point]"
CCc1nc2ccccc2c(C(=O)OCc2nc3ccccc3c(=O)[nH]2)c1C,inactive: -8.65%,–
CCC(C(=O)NC1CCCCC1)n1c(SCc2ccc(F)cc2)nc2ccncc21 (centres undefined),–,"inconclusive: 3.98 µM [inhibitor, partial curve, poor fit]"
CCCCn1c(-c2nonc2NC(=O)c2ccccc2Cl)nc2ccccc21,–,"inconclusive: 0.355 µM [inhibitor, full curve, poor fit]"
CCOC(=O)/C(=C\c1ccc([N+](=O)[O-])o1)NC(=O)c1ccccc1,–,"inconclusive: 6.31 µM [inhibitor, single point]"
CC(C)c1cc(=O)oc2c3c4c(cc12)CCCN4CCC3,inactive: -7.85%,–
O=c1[nH]c(Nc2ccccc2)cc2cc(Br)ccc12,–,"inconclusive: 28.2 µM [inhibitor, single point]"
CC(=O)N(CCc1ccccc1C)Cc1cc2cc(C)ccc2[nH]c1=O,–,"inconclusive: 6.31 µM [inhibitor, partial curve, poor fit]"
COc1ccc(NC(=O)Nc2c(O)ccc3ccccc23)cc1,–,"inconclusive: 8.91 µM [inhibitor, partial curve, poor fit]"
O=C(Nc1ccc(N2CCOCC2)cc1)c1cnsn1,–,"inconclusive: 3.16 µM [inhibitor, partial curve, poor fit]"
CCN(CC)S(=O)(=O)c1cc(C(=O)OC(C)C(=O)NCc2ccco2)ccc1C (centres undefined),–,"inconclusive: 7.94 µM [inhibitor, partial curve]"
COc1cccc(CN(CC(=O)NCc2ccccc2)C(=O)c2csnn2)c1,inactive: 7.81%,–
O=C(CCc1nc2ccccc2s1)c1ccccc1,inactive: 11.8%,–
COc1ccc(/C=N/NC(=O)c2cc3cc(OC)c(OC)cc3[nH]2)cc1,–,"inconclusive: 8.91 µM [inhibitor, partial curve, poor fit]"
Cc1ccc(C(=O)NCCc2cccs2)cc1,–,active: 5.01 µM

Structure (SMILES),"activity change, negative = inhibition",Potency
COc1ccc(CCn2c(C(C)C)nc3c(c(=O)c4ccccc4n3C)c2=O)cc1,–,"inconclusive: 11.2 µM [inhibitor, partial curve, poor fit]"
CC(C)[C@H](NC(=O)CCCn1nnc2ccccc2c1=O)C(=O)O,inactive: 0.57%,–
O=C(N/N=C\c1ccc2c(c1)OCO2)c1ccco1,–,"inconclusive: 12.6 µM [inhibitor, partial curve, poor fit]"
O=[N+]([O-])c1cccc(/C=N/Nc2nc(NCc3ccccc3)nc(N3CCOCC3)n2)c1O,–,"inconclusive: 2.51 µM [inhibitor, full curve, poor fit]"
Cc1ccc(Nc2cc(-n3cccn3)ncn2)c(C)c1,–,"inconclusive: 2.24 µM [inhibitor, partial curve, poor fit]"
CCN(C(=O)CSc1nc2ccc(OC)cc2[nH]1)c1c(N)n(Cc2ccccc2)c(=O)[nH]c1=O,inactive: -11.9%,–
COc1ccc(C(=O)NNC(=S)NC(=O)c2ccc(F)cc2)cc1Br,–,"inconclusive: 11.2 µM [inhibitor, partial curve, poor fit]"
Cc1ccc(-c2cc(C(=O)N3CCCC3)no2)cc1,–,"inconclusive: 4.47 µM [inhibitor, partial curve]"
COc1ccc(-n2c(=O)c3c4c(sc3n3c(=S)[nH]nc23)CCC4)cc1,inactive: 6.86%,–
O=C(NC(=S)Nc1cccc2c(O)cccc12)c1ccccc1[N+](=O)[O-],inactive: 2.3%,–
Cn1c(=O)c2c(=O)cc(N)[nH]c2n(C)c1=O,–,"inconclusive: 1.12 µM [inhibitor, full curve, poor fit]"
CNC(=O)c1cc(C(=O)c2ccc(Cl)cc2)c(Br)[nH]1,inactive: 13%,–
CC1NC(=O)NC1CCCCCC(=O)NCCc1ccccc1 (centres undefined),inactive: 3.34%,–
COC(=O)c1ccsc1-n1cc(C#N)c(=O)n(C)c1=O,inactive: -5.75%,–
Cc1cc(Br)ccc1OCC(=O)NNC(=O)c1cnccn1,–,"inconclusive: 3.98 µM [inhibitor, partial curve, poor fit]"
N=c1c(C(=O)NCc2ccc(F)cc2)cc2c(=O)n3ccccc3nc2n1Cc1ccco1,inactive: -8.7%,–
Cc1ccccc1-c1cccc([C@@H]2C[C@H]3[C@H](CON3C)CN2C(=O)CCc2ccccc2)c1,–,"inconclusive: 10 µM [inhibitor, single point]"
O=C1C(Cc2ccccc2)Nc2ncnc(N3CCc4ccccc4C3)c2N1Cc1ccc(Cl)cc1 (centres undefined),–,"inconclusive: 10 µM [inhibitor, partial curve]"
c1ccc2oc(C3=NNC(=NC4CC4)SC3)cc2c1,–,"inconclusive: 4.47 µM [inhibitor, partial curve]"
CCOC(=O)c1cnc2ccc(Cl)cc2c1NCCN(C)C,inactive: 1.66%,–
CC(=O)c1ccc2noc(-c3ccc(C)cc3)c2c1,–,"inconclusive: 0.355 µM [inhibitor, full curve, poor fit]"
Cc1ccccc1Cn1c(NC2CCCC2)nc2c1c(=O)[nH]c(=O)n2C,–,"inconclusive: 5.62 µM [inhibitor, partial curve, poor fit]"
Cc1ccc(CC2CC(=O)N(c3nc4ccccc4s3)C2=O)cc1 (centres undefined),inactive: -1.69%,–
